Test results as given in patent US20050186138.
Construct, isoform or probe ends are uncertain for at least one entry. For some of these results: No signal at the amounts used counts as a negative. Protein sequences can lack the tags named with them.

Key:
Rev-erb alpha [1] = biological target: T1, Rev-erb alpha (UniProt Q3UV55); test: competition with a labelled probe; conditions: 1 pmol unlabeled mutant did not compete with 1 fmol wild-type probe in EMSA; protein translated in vitro; protein details: TNT reticulocyte lysate; variant of Bmal1 RORE wild-type
T1 sequence (looked up, limits assumed): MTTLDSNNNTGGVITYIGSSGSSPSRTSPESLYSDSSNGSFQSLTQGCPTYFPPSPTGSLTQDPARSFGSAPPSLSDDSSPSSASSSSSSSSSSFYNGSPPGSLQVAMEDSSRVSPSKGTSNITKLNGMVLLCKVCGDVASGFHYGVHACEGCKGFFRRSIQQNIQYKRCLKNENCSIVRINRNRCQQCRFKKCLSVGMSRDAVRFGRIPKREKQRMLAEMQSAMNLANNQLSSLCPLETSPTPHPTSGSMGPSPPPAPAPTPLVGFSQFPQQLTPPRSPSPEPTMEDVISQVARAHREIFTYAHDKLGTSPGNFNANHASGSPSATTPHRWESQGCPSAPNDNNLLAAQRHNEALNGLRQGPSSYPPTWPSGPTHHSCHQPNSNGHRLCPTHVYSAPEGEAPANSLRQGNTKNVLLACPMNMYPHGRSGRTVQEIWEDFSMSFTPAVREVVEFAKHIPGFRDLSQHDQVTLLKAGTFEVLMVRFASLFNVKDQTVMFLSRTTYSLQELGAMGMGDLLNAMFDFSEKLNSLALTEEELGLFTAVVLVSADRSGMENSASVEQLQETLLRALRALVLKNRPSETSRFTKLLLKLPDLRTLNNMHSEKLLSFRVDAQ

Rev-erb beta [2] = biological target: T2, Rev-erb beta (UniProt Q60674); test: competition with a labelled probe; conditions: 1 pmol unlabeled mutant did not compete with 1 fmol wild-type probe in EMSA; protein translated in vitro; protein details: TNT SP6 reticulocyte lysate, pCMV-Sport6 cDNA; variant of Bmal1 RORE wild-type
T2 sequence (looked up, limits assumed): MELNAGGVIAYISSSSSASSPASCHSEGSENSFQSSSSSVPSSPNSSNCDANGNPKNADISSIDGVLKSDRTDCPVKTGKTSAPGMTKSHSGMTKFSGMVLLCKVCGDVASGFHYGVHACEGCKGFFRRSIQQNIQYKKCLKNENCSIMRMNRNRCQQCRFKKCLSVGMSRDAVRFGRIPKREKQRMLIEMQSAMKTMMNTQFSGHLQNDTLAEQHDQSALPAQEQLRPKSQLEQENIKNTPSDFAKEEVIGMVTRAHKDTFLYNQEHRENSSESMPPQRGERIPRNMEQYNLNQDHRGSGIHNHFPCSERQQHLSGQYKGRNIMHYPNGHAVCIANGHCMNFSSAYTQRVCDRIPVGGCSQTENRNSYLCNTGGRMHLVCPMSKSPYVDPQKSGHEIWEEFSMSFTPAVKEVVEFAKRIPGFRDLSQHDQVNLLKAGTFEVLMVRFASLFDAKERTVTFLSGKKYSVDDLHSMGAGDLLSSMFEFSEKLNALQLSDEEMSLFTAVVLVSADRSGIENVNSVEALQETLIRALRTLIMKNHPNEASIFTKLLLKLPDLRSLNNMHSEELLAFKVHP

Rora1 [3] = biological target: T3, Rora1 (UniProt P51448); test: competition with a labelled probe; conditions: 1 pmol unlabeled mutant did not compete with 1 fmol wild-type probe in EMSA; protein translated in vitro; protein details: TNT SP6 reticulocyte lysate, pCMV-Sport6 cDNA; variant of Bmal1 RORE wild-type
T3 sequence (looked up, limits assumed): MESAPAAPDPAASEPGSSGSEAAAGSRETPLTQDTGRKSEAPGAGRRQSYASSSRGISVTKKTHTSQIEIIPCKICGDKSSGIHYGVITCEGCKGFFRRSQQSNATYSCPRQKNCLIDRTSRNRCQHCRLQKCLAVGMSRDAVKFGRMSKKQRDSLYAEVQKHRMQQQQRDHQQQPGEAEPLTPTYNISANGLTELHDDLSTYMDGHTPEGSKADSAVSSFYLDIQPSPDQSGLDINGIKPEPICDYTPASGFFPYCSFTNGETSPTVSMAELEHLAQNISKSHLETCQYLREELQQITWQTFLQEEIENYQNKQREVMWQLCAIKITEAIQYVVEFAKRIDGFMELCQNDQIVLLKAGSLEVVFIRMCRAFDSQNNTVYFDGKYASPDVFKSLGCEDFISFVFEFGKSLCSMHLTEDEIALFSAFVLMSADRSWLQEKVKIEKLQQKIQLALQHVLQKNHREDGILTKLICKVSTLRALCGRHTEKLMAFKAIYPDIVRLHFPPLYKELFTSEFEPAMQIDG

Rora4 [4] = system: T4, Rora4; test: competition with a labelled probe; conditions: 1 pmol unlabeled mutant did not compete with 1 fmol wild-type probe in EMSA; protein translated in vitro; protein details: TNT SP6 reticulocyte lysate, pCMV-Sport6 cDNA; variant of Bmal1 RORE wild-type
T4 sequence (looked up, limits assumed): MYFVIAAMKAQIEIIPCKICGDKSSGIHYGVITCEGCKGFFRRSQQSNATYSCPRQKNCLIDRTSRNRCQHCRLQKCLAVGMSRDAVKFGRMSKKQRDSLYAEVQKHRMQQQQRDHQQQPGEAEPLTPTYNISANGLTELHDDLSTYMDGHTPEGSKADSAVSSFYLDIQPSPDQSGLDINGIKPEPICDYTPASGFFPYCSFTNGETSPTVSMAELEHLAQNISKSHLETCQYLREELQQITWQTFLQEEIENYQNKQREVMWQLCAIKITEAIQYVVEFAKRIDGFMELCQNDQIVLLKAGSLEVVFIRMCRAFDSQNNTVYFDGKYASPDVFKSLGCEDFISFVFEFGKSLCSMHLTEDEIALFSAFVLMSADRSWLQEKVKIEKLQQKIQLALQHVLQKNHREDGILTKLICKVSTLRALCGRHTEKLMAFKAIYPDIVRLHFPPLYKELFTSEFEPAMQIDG

Rorc [5] = biological target: T5, Rorc (UniProt P51450); test: competition with a labelled probe; conditions: 1 pmol unlabeled mutant did not compete with 1 fmol wild-type probe in EMSA; protein translated in vitro; protein details: TNT SP6 reticulocyte lysate, pCMV-Sport6 cDNA; variant of Bmal1 RORE wild-type
T5 sequence (looked up, limits assumed): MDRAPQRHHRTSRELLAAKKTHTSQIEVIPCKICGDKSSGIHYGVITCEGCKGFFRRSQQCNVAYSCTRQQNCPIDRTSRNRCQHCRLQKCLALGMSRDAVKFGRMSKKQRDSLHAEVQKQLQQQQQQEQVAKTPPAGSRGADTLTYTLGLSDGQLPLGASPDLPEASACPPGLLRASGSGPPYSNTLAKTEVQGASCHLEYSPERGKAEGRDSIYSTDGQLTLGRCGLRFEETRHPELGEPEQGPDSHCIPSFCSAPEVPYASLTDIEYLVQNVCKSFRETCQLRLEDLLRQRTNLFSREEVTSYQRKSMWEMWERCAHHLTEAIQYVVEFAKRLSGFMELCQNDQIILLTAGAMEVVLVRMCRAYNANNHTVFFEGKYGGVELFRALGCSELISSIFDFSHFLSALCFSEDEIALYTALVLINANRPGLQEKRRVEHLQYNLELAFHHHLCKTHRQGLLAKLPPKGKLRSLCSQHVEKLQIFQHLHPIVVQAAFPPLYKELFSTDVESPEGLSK

Rev-erb alpha [6] = biological target: T1, Rev-erb alpha; test: EMSA; conditions: protein translated in vitro; protein details: TNT reticulocyte lysate; label: 32P
Rev-erb beta [7] = biological target: T2, Rev-erb beta; test: EMSA; conditions: protein translated in vitro; protein details: TNT SP6 reticulocyte lysate, pCMV-Sport6 cDNA; label: 32P
Rora1 [8] = biological target: T3, Rora1; test: EMSA; conditions: protein translated in vitro; protein details: TNT SP6 reticulocyte lysate, pCMV-Sport6 cDNA; label: 32P
Rora4 [9] = system: T4, Rora4; test: EMSA; conditions: protein translated in vitro; protein details: TNT SP6 reticulocyte lysate, pCMV-Sport6 cDNA; label: 32P
Rorc [10] = biological target: T5, Rorc; test: EMSA; conditions: protein translated in vitro; protein details: TNT SP6 reticulocyte lysate, pCMV-Sport6 cDNA; label: 32P

GAAGGCAGAAAGTACGTCAGGGACGGAG (double strand) [Bmal1 RORE mutant]
binding result (Rev-erb alpha [1]): no binding | binding result (Rev-erb beta [2]): no binding | binding result (Rora1 [3]): no binding | binding result (Rora4 [4]): no binding | binding result (Rorc [5]): no binding

GAAGGCAGAAAGTAGGTCAGGGACGGAG (double strand) [Bmal1 RORE wild-type]
binding result (Rev-erb alpha [6]): binds | binding result (Rev-erb beta [7]): binds | binding result (Rora1 [8]): binds | binding result (Rora4 [9]): binds | binding result (Rorc [10]): binds
